Among the data in publication PMC10515036 are binding values, retold here.

The chains behind the UniProt entries cited, without tags or fusion partners.
UniProt P59941: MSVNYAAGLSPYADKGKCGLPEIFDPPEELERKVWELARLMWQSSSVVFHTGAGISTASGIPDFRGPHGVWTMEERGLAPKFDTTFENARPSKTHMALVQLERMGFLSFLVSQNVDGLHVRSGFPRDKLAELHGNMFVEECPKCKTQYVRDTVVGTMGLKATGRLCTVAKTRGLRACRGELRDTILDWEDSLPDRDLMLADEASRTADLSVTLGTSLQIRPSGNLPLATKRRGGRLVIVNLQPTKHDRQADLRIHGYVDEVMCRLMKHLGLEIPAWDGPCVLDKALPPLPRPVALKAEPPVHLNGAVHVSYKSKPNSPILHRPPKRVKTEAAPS
UniProt Q91ZW3: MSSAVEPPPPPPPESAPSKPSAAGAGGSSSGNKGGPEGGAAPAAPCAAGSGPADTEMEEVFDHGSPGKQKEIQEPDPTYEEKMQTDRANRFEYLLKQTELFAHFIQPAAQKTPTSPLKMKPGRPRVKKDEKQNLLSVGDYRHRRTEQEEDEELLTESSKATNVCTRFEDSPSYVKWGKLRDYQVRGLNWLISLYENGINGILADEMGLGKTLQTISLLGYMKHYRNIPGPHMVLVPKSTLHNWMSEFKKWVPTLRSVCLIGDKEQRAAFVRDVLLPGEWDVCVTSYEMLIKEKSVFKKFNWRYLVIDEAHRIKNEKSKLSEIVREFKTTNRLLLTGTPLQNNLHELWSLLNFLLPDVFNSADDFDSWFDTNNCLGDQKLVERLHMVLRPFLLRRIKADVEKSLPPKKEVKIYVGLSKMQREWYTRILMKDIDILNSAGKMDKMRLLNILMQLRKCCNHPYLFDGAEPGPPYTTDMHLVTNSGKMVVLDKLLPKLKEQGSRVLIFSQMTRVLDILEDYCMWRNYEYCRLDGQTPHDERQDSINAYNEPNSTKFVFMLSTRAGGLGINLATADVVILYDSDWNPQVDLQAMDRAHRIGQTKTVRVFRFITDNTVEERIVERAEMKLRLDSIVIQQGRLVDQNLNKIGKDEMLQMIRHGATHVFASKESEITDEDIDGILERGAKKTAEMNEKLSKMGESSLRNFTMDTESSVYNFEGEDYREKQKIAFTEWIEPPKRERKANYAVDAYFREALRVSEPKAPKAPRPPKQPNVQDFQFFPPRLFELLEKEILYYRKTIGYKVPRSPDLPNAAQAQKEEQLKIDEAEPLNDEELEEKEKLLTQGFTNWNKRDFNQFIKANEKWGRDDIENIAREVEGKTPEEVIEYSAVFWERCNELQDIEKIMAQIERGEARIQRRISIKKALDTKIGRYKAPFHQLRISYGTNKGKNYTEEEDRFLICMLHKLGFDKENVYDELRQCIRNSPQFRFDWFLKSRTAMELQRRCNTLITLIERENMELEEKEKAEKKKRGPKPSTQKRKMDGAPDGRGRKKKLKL

The target in the assay is Sirt6 (mouse (endogenous in RAW264.7)) (UniProt P59941). Put plainly: co-IP; lysate of macrophages treated with Ac-LDL; immunoprecipitation with SNF2H or Sirt6 antibody, Western blot for the other protein; control IgG as negative control; Proteintech Immunoprecipitation Kit KIP-2. On the technique in general: A western blot detects proteins with antibodies after separation by electrophoresis.

Results are given in words; binding and its absence hold for the method and conditions named. In cells and extracts the contact can be indirect. Some binding calls cover weakened binding; strength is not graded here.

On to “ISWI-chromatin remodeler SNF2H (from UniProt Q91ZW3 1-1051)”, for which the binding entry is listed as “binds”.
